Reference: patent US20130251714A1
These are yes or no findings as the source states them, for the method shown. Some binding calls cover weakened binding; strength is not graded here.

The chains behind the UniProt entries cited, without tags or fusion partners.
UniProt P32302: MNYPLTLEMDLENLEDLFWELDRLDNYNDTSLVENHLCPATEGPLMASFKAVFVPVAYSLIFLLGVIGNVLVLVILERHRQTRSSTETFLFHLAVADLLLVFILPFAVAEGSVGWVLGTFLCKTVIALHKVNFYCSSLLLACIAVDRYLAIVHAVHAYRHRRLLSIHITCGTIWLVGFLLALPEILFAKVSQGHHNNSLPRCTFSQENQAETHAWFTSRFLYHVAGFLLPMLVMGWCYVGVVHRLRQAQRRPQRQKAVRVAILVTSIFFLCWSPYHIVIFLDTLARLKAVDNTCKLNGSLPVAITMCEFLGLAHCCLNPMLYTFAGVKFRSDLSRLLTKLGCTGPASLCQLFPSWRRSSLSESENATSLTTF

Target: human CXCR5 (full-length, expressed on cells) (human) (UniProt P32302)
Experiment: FACS on human PBMCs (B cells)

binding: binds
B1: 16D7-HC1-LC6 (antibody, V domains shown)
VH: QVQLKESGPGLVAPSESLSITCTVSGFSLIDYGVNWIRQPPGKGLEWLGVIWGDGTTYYNPSLKSRLSISKDNSKSQVFLKVTSLTTDDTAMYYCARIVYWGQGTLVTVSA
VL: DIVMTQSALSVAVTPGESVSISCRSSKSLLHSSGKTYLYWFLQRPGQSPQLLIYRLSSLASGVPDRFSGSGSGTAFTLKISRVEAEDVGVYYCMQHLEYPYTFGGGTKLEIKR
